The target in test [1] is Marmoset monkey (Callithrix jacchus) CCR2 (Marmoset monkey (Callithrix jacchus)). Description: cell binding, primary marmoset monocytes.
The target is the same in test [2]. Description: cell binding, primary marmoset PBMC.

Results are given in words; binding and its absence hold for the method and conditions named. Binding calls can cover weak binding; strength is not graded here.

B1: DOC2-RHAXRKA FR2 (antibody, human IgG1, kappa, V domains shown)
VH: EVQLVESGGGVVQPGRSLRLSCAASGFTLSNYAMSWVRQAPGKGLEWVAEVSSSGIYIYYSDTVTGRFTISRDNSKNTLYLQMNSLRAEDTAVYYCARDRYAYAMDYWGQGTLVTVSS
VL: DIVMTQSPDSLAVSLGERATINCKSSQSLLNSYNQKNSLAWYQQKPGQSPKLLVYFASTRESGVPDRFSGSGSGTDFTLTISSLQAEDVAVYYCQQHYSNPRTFGGGTKLEIKR
As for B1, in test [1], the binding entry is recorded as “binds”.

B2: DOC2 (antibody, V domains shown)
VH: EVQLVESGGGLVKPGGSLKLSCVASGFTLSNYAMSWVRQSPEKRLEWVAEVSSSGIYIYYSDTVTGRFSISRDNAKNTLYLEMSSLRSEDTAIYYCARDRYAYAMDYWGHGTSVIVSS
VL: DIVMTQSPSSLAISVGQRVTLSCKSSQSLLNSYNQKNSLAWYQQKPGQSPKLLVYFASTRESGVPDRFIGSGSGTYFTLTITSVQAGDLADYFCQQHYSNPRTFGGGTRLEIK
Take B2: the binding entry in test [1] was “binds”.

B3: DOC2 chim. (antibody, human IgG1, kappa, V domains shown)
VH: EVQLVESGGGLVKPGGSLKLSCVASGFTLSNYAMSWVRQSPEKRLEWVAEVSSSGIYIYYSDTVTGRFSISRDNAKNTLYLEMSSLRSEDTAIYYCARDRYAYAMDYWGHGTSVIVSS
VL: DIVMTQSPSSLAISVGQRVTLSCKSSQSLLNSYNQKNSLAWYQQKPGQSPKLLVYFASTRESGVPDRFIGSGSGTYFTLTITSVQAGDLADYFCQQHYSNPRTFGGGTRLEIKR
For B3, the binding entry in test [2] is recorded as “binds”.

The values are drawn from patent publication US20260193365A1 (GRANITE BIO, published 2026).
